Source: PubChem BioAssay AID1053208 (Peter MacCallum Cancer Centre, 2014)

- Assay: 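Find knock-downs that sensitise mouse osteosarcoma cells to doxorubicin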 (primary screen)
- System: mouse osteosarcoma cells, early-passage culture from an engineered mouse model of fibroblastic bone tumour
- Knock-down reagent: siRNA pool against mouse genes, 40 nM
- Time to read-out: about 120 h (48 h before drug, then 72 h with drug)
- Challenge: doxorubicin 100 nM for 72 h, roughly 30-40% inhibitory dose
- Read-out: 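Luminescent ATP signal taken as viability with or without 100 nM doxorubicin for 72 h; mean of two wells set against non-targeting siRNA and turned into robust z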
- Scale: viability z-score with doxorubicin: higher = more viable cells under doxorubicin; viability z-score without drug: higher = more viable cells with knock-down alone
- Hit rule: 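Called active if knock-down leaves viability unchanged without drug (z within -2 to 2) but lowers it with doxorubicin (z at or under -2)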
The whole screen tested about 17,000 reagents; below is a random part of them. 788 of them (4.7%) count as active. 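Calls rest on z-score classes alone; an extra cut-off of viability at most 70% of control was not applied to them.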 Some reagents were tested in more than one well and are listed for each. Further read-outs or replicates are left out here.

For H4c16, what does the deposit list?
combined z-score class: no change with or without drug; viability z-score with doxorubicin: 1.24; viability z-score without drug: 0.51; outcome: inactive

How did the screen score Rgs11?
combined z-score class: no change with or without drug; viability z-score with doxorubicin: 0; viability z-score without drug: -1.69; outcome: inactive

How did the screen score Sf1?
combined z-score class: no change with or without drug; viability z-score with doxorubicin: 0.45; viability z-score without drug: 0.84; outcome: inactive

For Strada, what does the deposit list?
combined z-score class: no change with or without drug; viability z-score with doxorubicin: 0.22; viability z-score without drug: -1.18; outcome: inactive

Which result is listed for Strada?
combined z-score class: no change with or without drug; viability z-score with doxorubicin: -0.45; viability z-score without drug: -0.17; outcome: inactive

For Ngfr, what does the deposit list?
combined z-score class: no change with or without drug; viability z-score with doxorubicin: 0.9; viability z-score without drug: -1.18; outcome: inactive

With Rnf222, how do the results read?
combined z-score class: high cell count with doxorubicin only; viability z-score with doxorubicin: 3.48; viability z-score without drug: 1.69; outcome: inactive

For Elp2, how do the results read?
combined z-score class: no change with or without drug; viability z-score with doxorubicin: -0.22; viability z-score without drug: -0.51; outcome: inactive

What did the screen give for Pygm?
combined z-score class: no change with or without drug; viability z-score with doxorubicin: -1.01; viability z-score without drug: 0.84; outcome: inactive

With Or8k3b, what does the deposit list?
combined z-score class: low cell count without drug only; viability z-score with doxorubicin: -0.9; viability z-score without drug: -2.19; outcome: inactive

For Ell3, what does the deposit list?
combined z-score class: low cell count with doxorubicin only; viability z-score with doxorubicin: -2.36; viability z-score without drug: 1.01; outcome: active

How did the screen score Tfcp2?
combined z-score class: no change with or without drug; viability z-score with doxorubicin: 1.35; viability z-score without drug: 1.52; outcome: inactive

How did the screen score Pex5?
combined z-score class: no change with or without drug; viability z-score with doxorubicin: 0; viability z-score without drug: 1.52; outcome: inactive

For Prl2c2, what was measured?
combined z-score class: no change with or without drug; viability z-score with doxorubicin: 0.45; viability z-score without drug: -1.52; outcome: inactive

For Snca, how do the results read?
combined z-score class: no change with or without drug; viability z-score with doxorubicin: -0.67; viability z-score without drug: -0.84; outcome: inactive

What did the screen give for Zfp110?
combined z-score class: no change with or without drug; viability z-score with doxorubicin: -0.67; viability z-score without drug: -1.18; outcome: inactive

How did the screen score Tmprss11b?
combined z-score class: no change with or without drug; viability z-score with doxorubicin: 0.56; viability z-score without drug: 1.85; outcome: inactive

For Timm17b, how do the results read?
combined z-score class: no change with or without drug; viability z-score with doxorubicin: -0.45; viability z-score without drug: 0.67; outcome: inactive

With Diaph3, what does the deposit list?
combined z-score class: no change with or without drug; viability z-score with doxorubicin: 0.45; viability z-score without drug: -1.01; outcome: inactive

Which result is listed for Vstm2b?
combined z-score class: no change with or without drug; viability z-score with doxorubicin: -0.45; viability z-score without drug: -1.01; outcome: inactive

With Slc12a5, how do the results read?
combined z-score class: no change with or without drug; viability z-score with doxorubicin: -0.11; viability z-score without drug: 0.84; outcome: inactive

What did the screen give for Slc7a15?
combined z-score class: high cell count with doxorubicin only; viability z-score with doxorubicin: 2.02; viability z-score without drug: 0.84; outcome: inactive

Which result is listed for Dand5?
combined z-score class: no change with or without drug; viability z-score with doxorubicin: -0.22; viability z-score without drug: 0.51; outcome: inactive

What is on record for Mta1?
combined z-score class: no change with or without drug; viability z-score with doxorubicin: -0.22; viability z-score without drug: -0.51; outcome: inactive

How did the screen score Lypd8l?
combined z-score class: no change with or without drug; viability z-score with doxorubicin: 0.22; viability z-score without drug: 0.84; outcome: inactive

For Mfap4, what was measured?
combined z-score class: no change with or without drug; viability z-score with doxorubicin: 1.24; viability z-score without drug: 0.17; outcome: inactive

What is on record for Sync?
combined z-score class: no change with or without drug; viability z-score with doxorubicin: -0.11; viability z-score without drug: 0.51; outcome: inactive

Which result is listed for Asb11?
combined z-score class: no change with or without drug; viability z-score with doxorubicin: -0.45; viability z-score without drug: -0.17; outcome: inactive

Reformatted: results already given.
{"gene knocked down":"Tmprss11b","combined z-score class":"no change with or without drug","viability z-score with doxorubicin":0.56,"viability z-score without drug":1.85,"outcome":"inactive"}
{"gene knocked down":"Timm17b","combined z-score class":"no change with or without drug","viability z-score with doxorubicin":-0.45,"viability z-score without drug":0.67,"outcome":"inactive"}
